Laboratory results from PubChem BioAssay AID330 (DTP/NCI, 2004).
The list is a part of this screen's results and no random one: its compounds were picked by chemical class. Not every dose and run of a compound is shown. T/C is the treated group as % of the vehicle group. Some doses have a count of surviving animals in place of a T/C: the source files T/C as zero there, which appears to mark a toxic dose or a test without result, not a measured value. Some doses without a T/C left all or most animals alive at the check, yet need not have been tolerated: the source hardly ever lists a survival T/C far under the control, and the zero likely stands for such cases as well. Counts of survivors are from the toxicity check (mostly the fifth day) where no day follows; animals may have died later. Schedule codes are those of the source, read here as Q, the interval in days (D) or hours (H), X, the number of doses. For survival time, this PubChem deposit counts one and a half times the control or more as active, and values a quarter to a half above the control carry no call in these data; other NCI protocols may use other cut-offs. Some entries were tested several times; the values are given in rising order. Some T/C values are marked as having no survivor count here; that says nothing about deaths at the dose. Some T/C values are followed by the survivors on the day toxicity was checked, most often the fifth; without a count or a note in brackets, all were alive then. Some metal complexes and salts are drawn in pieces, as in the source, so charges may not balance.

System: P388 leukemia ip, CD2F1 mice, survival T/C
Assay: NCI In Vivo Anticancer Drug Screen. Data for tumor model P388 Leukemia (intraperitoneal) in CD2F1 (CDF1) mice
Details: T/C endpoint: median survival time, higher T/C = longer survival
[1] = dose: 25.0 mg/kg/injection, schedule: Q01DX009 (ip), vehicle: saline with Tween-80
[2] = dose: 50.0 mg/kg/injection, schedule: Q01DX009 (ip), vehicle: saline with Tween-80
[3] = dose: 100.0 mg/kg/injection, schedule: Q01DX009 (ip), vehicle: saline with Tween-80
[4] = dose: 60.0 mg/kg/injection, schedule: Q01DX005 (ip), vehicle: saline with Tween-80
[5] = dose: 120.0 mg/kg/injection, schedule: Q01DX005 (ip), vehicle: saline with Tween-80
[6] = dose: 240.0 mg/kg/injection, schedule: Q01DX005 (ip), vehicle: saline with Tween-80
[7] = dose: 6.25 mg/kg/injection, schedule: Q04DX002 (ip), vehicle: saline with Tween-80
[8] = dose: 12.5 mg/kg/injection, schedule: Q04DX002 (ip), vehicle: saline with Tween-80
[9] = dose: 100.0 mg/kg/injection, schedule: Q04DX003 (ip), vehicle: saline
[10] = dose: 200.0 mg/kg/injection, schedule: Q04DX003 (ip), vehicle: saline

`ClC1CSC1` was tested, and the T/C (dose: 25.0 mg/kg/injection, schedule: Q01DX009 (ip), vehicle: other) was 95 % of control, the T/C (dose: 25.0 mg/kg/injection, schedule: Q01DX009 (ip), vehicle: saline sonified) was 104 % of control and the T/C [1] was 95 % of control. For the same compound, the survivor count (dose: 50.0 mg/kg/injection, schedule: Q01DX009 (ip), vehicle: other) was 4 of 6, the T/C (dose: 50.0 mg/kg/injection, schedule: Q01DX009 (ip), vehicle: saline sonified) was 95 % of control and the T/C [2] was 95 % of control. The T/C (dose: 100.0 mg/kg/injection, schedule: Q01DX009 (ip), vehicle: other) was 95 % of control [4 of 6 alive], the T/C (dose: 100.0 mg/kg/injection, schedule: Q01DX009 (ip), vehicle: saline sonified) was 95 % of control and the T/C [3] was 95 % of control. For the same compound, the survivor count (dose: 200.0 mg/kg/injection, schedule: Q01DX009 (ip), vehicle: other) was 4 of 6, the T/C (dose: 200.0 mg/kg/injection, schedule: Q01DX009 (ip), vehicle: saline sonified) was 90 % of control [4 of 6 alive] and the survivor count (dose: 200.0 mg/kg/injection, schedule: Q01DX009 (ip), vehicle: saline with Tween-80) was 4 of 6. For the same compound, the survivor count (dose: 400.0 mg/kg/injection, schedule: Q01DX009 (ip), vehicle: other) was 0 of 6, the survivor count (dose: 400.0 mg/kg/injection, schedule: Q01DX009 (ip), vehicle: saline sonified) was 0 of 6 and the survivor count (dose: 400.0 mg/kg/injection, schedule: Q01DX009 (ip), vehicle: saline with Tween-80) was 1 of 6.
With `C1CN1.O=C(O)CCSCNc1ncnc2c1ncn2C1OC(COP(=O)(O)OP(=O)(O)OP(=O)(O)O)C(O)C1O` (stereo not given) the T/C (dose: 5.0 mg/kg/injection, schedule: Q04DX002 (ip), vehicle: saline) was 106 % of control, the T/C (dose: 10.0 mg/kg/injection, schedule: Q04DX002 (ip), vehicle: saline) was 118 % of control [5 of 6 alive] and the T/C (dose: 20.0 mg/kg/injection, schedule: Q04DX002 (ip), vehicle: saline) was 109 % of control [5 of 6 alive]. The survivor count (dose: 100.0 mg/kg/injection, schedule: Q04DX002 (ip), vehicle: saline) was 0 of 6, the survivor count (dose: 200.0 mg/kg/injection, schedule: Q04DX002 (ip), vehicle: saline) was 0 of 6 and the survivor count (dose: 400.0 mg/kg/injection, schedule: Q04DX002 (ip), vehicle: saline) was 0 of 6.
`O=P1(Nc2ncccn2)OC(CCl)=NC1c1ccc(C2N=C(CCl)OP2(=O)Nc2ncccn2)cc1` (stereo not given) was tested, and the T/C [4] was 104 % of control, the T/C [5] was 92 % of control and the T/C [6] was 92 % of control.
With `CC[P+]1(c2ccccc2)CCC(C)c2ccccc21.F[P-](F)(F)(F)(F)F` (stereo not given) the T/C (dose: 1.56 mg/kg/injection, schedule: Q04DX002 (ip), vehicle: saline) was 108 % of control, the T/C (dose: 3.13 mg/kg/injection, schedule: Q04DX002 (ip), vehicle: saline) was 106 % of control [5 of 6 alive] and the survivor count [7] was 6 of 6. For the same compound, the T/C (dose: 6.25 mg/kg/injection, schedule: Q04DX002 (ip), vehicle: saline) was 121 % of control, the survivor count [8] was 3 of 6 and the survivor count (dose: 25.0 mg/kg/injection, schedule: Q04DX002 (ip), vehicle: saline with Tween-80) was 0 of 6.
`COP(C)(=O)O.[Ti]` was tested, and the T/C (dose: 50.0 mg/kg/injection, schedule: Q01DX009 (ip), vehicle: Klucel (hydroxypropylcellulose) (HPC)) was 95 % of control [survivor count not shown] and the T/C (dose: 100.0 mg/kg/injection, schedule: Q01DX009 (ip), vehicle: Klucel (hydroxypropylcellulose) (HPC)) was 90 % of control [survivor count not shown].
For `F[P-](F)(F)(F)(F)F.c1ccc(C[S+]2CCCC2)cc1`, the T/C (dose: 7.5 mg/kg/injection, schedule: Q01DX005 (ip), vehicle: saline with Tween-80) was 102 % of control, the T/C (dose: 15.0 mg/kg/injection, schedule: Q01DX005 (ip), vehicle: saline with Tween-80) was 100 % of control and the survivor count (dose: 30.0 mg/kg/injection, schedule: Q01DX005 (ip), vehicle: saline with Tween-80) was 2 of 6. For the same compound, the survivor count [4] was 0 of 6, the survivor count [5] was 0 of 6 and the survivor count [6] was 0 of 6.
For `O=[N+]([O-])NCC(NN[N+](=O)[O-])N[N+](=O)[O-]` (stereo not given), the T/C [7] was 115 % of control [survivor count not shown] and the T/C [8] was 91 % of control [survivor count not shown].
With `NC1(C(=O)O)Cc2ccc(N(CCCl)CCCl)cc2C1` (stereo not given) the T/C (dose: 0.78 mg/kg/injection, schedule: Q04DX003 (ip), vehicle: Klucel (hydroxypropylcellulose) (HPC)) was 178 % of control, the T/C (dose: 1.56 mg/kg/injection, schedule: Q04DX003 (ip), vehicle: Klucel (hydroxypropylcellulose) (HPC)) was 130 and 190 % of control and the T/C (dose: 3.13 mg/kg/injection, schedule: Q04DX003 (ip), vehicle: Klucel (hydroxypropylcellulose) (HPC)) was 201 and 237 % of control. The T/C (dose: 6.25 mg/kg/injection, schedule: Q04DX003 (ip), vehicle: Klucel (hydroxypropylcellulose) (HPC)) was 195 and 299 % of control, the survivor count (dose: 12.5 mg/kg/injection, schedule: Q04DX003 (ip), vehicle: Klucel (hydroxypropylcellulose) (HPC)) was 6 of 6 and the survivor count (dose: 25.0 mg/kg/injection, schedule: Q04DX003 (ip), vehicle: Klucel (hydroxypropylcellulose) (HPC)) was 4 of 6. For the same compound, the survivor count (dose: 50.0 mg/kg/injection, schedule: Q04DX003 (ip), vehicle: Klucel (hydroxypropylcellulose) (HPC)) was 4 of 6, the survivor count (dose: 100.0 mg/kg/injection, schedule: Q04DX003 (ip), vehicle: Klucel (hydroxypropylcellulose) (HPC)) was 6 of 6 and the survivor count (dose: 200.0 mg/kg/injection, schedule: Q04DX003 (ip), vehicle: Klucel (hydroxypropylcellulose) (HPC)) was 4 of 6. For the same compound, the survivor count (dose: 400.0 mg/kg/injection, schedule: Q04DX003 (ip), vehicle: Klucel (hydroxypropylcellulose) (HPC)) was 4 of 6.
For `O/N=C1/CNCC(NO)=N1`, the T/C (dose: 50.0 mg/kg/injection, schedule: Q01DX005 (ip), vehicle: saline) was 101 % of control, the T/C (dose: 100.0 mg/kg/injection, schedule: Q01DX005 (ip), vehicle: saline) was 100 % of control and the T/C (dose: 200.0 mg/kg/injection, schedule: Q01DX005 (ip), vehicle: saline) was 107 % of control.
With `COP(C)(=O)O.[Ce]` the T/C (dose: 50.0 mg/kg/injection, schedule: Q04DX003 (ip), vehicle: saline) was 87 % of control [survivor count not shown], the T/C [9] was 96 % of control [survivor count not shown] and the T/C [10] was 96 % of control [survivor count not shown].
In the case of `ClCCN(CCCl)c1cccc(CN2CCCC2)c1.O=[N+]([O-])c1cc([N+](=O)[O-])c(O)c([N+](=O)[O-])c1`, the T/C (dose: 12.5 mg/kg/injection, schedule: Q01DX009 (ip), vehicle: saline with Tween-80) is reported as 92 % of control [survivor count not shown], the T/C [1] is reported as 88 % of control [survivor count not shown] and the T/C [2] is reported as 126 % of control [survivor count not shown]. The T/C [3] was 153 % of control [survivor count not shown].
`NCCNCCCl` was tested, and the T/C [9] was 91 % of control, the T/C [10] was 100 % of control and the T/C (dose: 400.0 mg/kg/injection, schedule: Q04DX003 (ip), vehicle: saline) was 95 % of control.
For `CN([PH+](F)F)[PH+](F)F.CN([PH+](F)F)[PH+](F)F.[C-]#[O+].[C-]#[O+].[C-]#[O+].[C-]#[O+].[CH-]=O.[Fe].[Fe]`, the T/C (dose: 100.0 mg/kg/injection, schedule: Q01DX001 (ip), vehicle: Klucel (hydroxypropylcellulose) (HPC)) was 100 % of control, the T/C (dose: 200.0 mg/kg/injection, schedule: Q01DX001 (ip), vehicle: Klucel (hydroxypropylcellulose) (HPC)) was 102 % of control and the T/C (dose: 400.0 mg/kg/injection, schedule: Q01DX001 (ip), vehicle: Klucel (hydroxypropylcellulose) (HPC)) was 100 % of control.
`O=P(NC1=NCCCC1)(Oc1ccccc1)Oc1ccccc1` was tested, and the T/C (dose: 12.5 mg/kg/injection, schedule: Q01DX009 (ip), vehicle: distilled water + Tween-80) was 111 % of control, the T/C (dose: 25.0 mg/kg/injection, schedule: Q01DX009 (ip), vehicle: distilled water + Tween-80) was 99 % of control and the survivor count (dose: 50.0 mg/kg/injection, schedule: Q01DX009 (ip), vehicle: distilled water + Tween-80) was 3 of 6. The survivor count (dose: 100.0 mg/kg/injection, schedule: Q01DX009 (ip), vehicle: distilled water + Tween-80) was 2 of 6.
